The supplement of paper PMC10849652
This is one part of the list.

Amino acid sequences for entries named in this document (tags omitted). A change or cut given only in a name is not applied to a line headed by its entry.
UniProt Q9BQA1, whole entry, looked up: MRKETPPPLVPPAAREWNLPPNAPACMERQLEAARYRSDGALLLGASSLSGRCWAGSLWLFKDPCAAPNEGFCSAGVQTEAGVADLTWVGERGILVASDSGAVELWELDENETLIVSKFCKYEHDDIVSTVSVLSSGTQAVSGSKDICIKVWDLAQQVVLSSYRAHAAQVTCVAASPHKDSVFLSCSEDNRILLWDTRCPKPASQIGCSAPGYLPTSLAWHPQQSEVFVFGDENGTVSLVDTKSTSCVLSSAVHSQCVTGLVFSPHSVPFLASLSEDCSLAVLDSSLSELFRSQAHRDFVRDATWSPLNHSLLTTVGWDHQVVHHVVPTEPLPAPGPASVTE
UniProt Q9UID3: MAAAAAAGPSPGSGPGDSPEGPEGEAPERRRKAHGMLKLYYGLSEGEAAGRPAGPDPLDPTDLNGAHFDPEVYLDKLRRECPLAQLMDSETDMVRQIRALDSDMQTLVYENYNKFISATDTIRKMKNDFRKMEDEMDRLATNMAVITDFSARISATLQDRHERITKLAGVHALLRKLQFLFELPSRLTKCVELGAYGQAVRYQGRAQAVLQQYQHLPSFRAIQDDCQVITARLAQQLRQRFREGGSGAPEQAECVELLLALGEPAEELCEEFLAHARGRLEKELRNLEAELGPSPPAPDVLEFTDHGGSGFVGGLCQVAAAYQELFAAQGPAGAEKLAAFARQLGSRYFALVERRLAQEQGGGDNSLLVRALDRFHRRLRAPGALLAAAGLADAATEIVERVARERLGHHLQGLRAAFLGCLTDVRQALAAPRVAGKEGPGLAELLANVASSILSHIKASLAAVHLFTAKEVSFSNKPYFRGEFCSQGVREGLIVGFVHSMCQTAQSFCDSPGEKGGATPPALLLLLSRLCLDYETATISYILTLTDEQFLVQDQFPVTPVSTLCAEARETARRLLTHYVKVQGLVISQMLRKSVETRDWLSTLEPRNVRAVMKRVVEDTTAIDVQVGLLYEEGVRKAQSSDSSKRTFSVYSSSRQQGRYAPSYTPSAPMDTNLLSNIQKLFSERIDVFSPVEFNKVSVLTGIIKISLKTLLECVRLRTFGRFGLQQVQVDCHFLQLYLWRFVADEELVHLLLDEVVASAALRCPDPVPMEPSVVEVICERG
UniProt Q9H267: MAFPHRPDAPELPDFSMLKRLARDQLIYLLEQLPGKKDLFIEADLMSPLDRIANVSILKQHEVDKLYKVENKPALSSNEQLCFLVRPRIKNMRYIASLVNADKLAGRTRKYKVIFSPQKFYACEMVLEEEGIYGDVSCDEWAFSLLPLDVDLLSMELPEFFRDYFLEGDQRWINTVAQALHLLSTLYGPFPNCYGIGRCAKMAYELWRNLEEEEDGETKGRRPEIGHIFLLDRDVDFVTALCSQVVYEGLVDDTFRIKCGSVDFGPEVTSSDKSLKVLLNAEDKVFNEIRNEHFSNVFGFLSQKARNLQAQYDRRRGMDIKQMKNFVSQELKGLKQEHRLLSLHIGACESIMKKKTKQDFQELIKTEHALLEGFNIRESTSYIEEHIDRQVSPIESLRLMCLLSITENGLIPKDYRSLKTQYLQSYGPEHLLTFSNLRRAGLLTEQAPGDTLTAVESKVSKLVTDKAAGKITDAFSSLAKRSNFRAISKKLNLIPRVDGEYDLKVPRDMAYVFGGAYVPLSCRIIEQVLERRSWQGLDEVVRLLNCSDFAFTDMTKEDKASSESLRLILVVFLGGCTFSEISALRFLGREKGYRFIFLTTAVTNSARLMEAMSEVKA
UniProt Q8IWB7: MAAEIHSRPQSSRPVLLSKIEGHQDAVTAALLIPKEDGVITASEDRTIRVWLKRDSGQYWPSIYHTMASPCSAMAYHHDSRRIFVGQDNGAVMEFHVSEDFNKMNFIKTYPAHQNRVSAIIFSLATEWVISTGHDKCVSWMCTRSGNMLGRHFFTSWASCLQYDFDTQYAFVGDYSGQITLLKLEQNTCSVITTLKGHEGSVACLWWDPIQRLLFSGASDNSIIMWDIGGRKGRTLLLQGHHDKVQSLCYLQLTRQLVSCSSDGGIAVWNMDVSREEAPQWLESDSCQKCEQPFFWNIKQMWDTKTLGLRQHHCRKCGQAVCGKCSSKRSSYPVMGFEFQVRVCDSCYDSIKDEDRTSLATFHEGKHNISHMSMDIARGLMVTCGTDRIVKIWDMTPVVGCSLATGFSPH
UniProt Q9NRW7: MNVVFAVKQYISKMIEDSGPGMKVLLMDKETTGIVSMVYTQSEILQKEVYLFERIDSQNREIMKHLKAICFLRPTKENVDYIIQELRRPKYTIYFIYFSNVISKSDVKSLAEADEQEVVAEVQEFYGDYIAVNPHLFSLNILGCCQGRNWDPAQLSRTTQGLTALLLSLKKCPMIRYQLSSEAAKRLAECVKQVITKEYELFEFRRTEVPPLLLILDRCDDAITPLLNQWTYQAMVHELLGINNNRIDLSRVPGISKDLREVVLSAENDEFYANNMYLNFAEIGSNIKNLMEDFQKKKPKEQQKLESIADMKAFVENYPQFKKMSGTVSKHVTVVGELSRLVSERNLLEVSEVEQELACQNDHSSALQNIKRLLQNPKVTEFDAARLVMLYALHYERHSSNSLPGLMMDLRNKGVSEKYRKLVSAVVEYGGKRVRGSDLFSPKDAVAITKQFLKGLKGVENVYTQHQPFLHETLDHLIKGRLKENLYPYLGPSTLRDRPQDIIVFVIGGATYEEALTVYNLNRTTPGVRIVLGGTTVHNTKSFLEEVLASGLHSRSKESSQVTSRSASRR
UniProt Q99986: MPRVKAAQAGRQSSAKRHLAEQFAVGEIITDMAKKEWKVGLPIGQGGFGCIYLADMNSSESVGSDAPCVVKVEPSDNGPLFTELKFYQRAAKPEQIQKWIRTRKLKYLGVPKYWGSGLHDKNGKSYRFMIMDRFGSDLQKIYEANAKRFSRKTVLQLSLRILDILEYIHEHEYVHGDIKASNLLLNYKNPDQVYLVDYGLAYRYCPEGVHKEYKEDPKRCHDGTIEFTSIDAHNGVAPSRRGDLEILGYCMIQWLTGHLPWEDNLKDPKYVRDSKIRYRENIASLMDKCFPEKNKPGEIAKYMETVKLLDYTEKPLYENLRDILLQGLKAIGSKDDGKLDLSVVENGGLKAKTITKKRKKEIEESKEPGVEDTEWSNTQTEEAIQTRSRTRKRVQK
UniProt Q9Y2I8: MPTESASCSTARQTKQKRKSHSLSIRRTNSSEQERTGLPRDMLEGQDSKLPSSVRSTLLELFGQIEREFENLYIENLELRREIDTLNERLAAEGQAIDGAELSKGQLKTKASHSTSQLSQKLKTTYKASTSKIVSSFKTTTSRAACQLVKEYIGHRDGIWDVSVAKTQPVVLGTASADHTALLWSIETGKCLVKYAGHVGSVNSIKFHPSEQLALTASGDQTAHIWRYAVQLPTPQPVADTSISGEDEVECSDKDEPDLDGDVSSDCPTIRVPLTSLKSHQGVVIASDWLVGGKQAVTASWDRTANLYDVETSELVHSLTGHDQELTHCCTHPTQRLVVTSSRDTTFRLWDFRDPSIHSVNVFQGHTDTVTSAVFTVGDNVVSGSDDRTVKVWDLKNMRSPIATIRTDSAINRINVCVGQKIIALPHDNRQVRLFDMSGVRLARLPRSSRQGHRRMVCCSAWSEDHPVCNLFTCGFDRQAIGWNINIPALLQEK
UniProt O43379: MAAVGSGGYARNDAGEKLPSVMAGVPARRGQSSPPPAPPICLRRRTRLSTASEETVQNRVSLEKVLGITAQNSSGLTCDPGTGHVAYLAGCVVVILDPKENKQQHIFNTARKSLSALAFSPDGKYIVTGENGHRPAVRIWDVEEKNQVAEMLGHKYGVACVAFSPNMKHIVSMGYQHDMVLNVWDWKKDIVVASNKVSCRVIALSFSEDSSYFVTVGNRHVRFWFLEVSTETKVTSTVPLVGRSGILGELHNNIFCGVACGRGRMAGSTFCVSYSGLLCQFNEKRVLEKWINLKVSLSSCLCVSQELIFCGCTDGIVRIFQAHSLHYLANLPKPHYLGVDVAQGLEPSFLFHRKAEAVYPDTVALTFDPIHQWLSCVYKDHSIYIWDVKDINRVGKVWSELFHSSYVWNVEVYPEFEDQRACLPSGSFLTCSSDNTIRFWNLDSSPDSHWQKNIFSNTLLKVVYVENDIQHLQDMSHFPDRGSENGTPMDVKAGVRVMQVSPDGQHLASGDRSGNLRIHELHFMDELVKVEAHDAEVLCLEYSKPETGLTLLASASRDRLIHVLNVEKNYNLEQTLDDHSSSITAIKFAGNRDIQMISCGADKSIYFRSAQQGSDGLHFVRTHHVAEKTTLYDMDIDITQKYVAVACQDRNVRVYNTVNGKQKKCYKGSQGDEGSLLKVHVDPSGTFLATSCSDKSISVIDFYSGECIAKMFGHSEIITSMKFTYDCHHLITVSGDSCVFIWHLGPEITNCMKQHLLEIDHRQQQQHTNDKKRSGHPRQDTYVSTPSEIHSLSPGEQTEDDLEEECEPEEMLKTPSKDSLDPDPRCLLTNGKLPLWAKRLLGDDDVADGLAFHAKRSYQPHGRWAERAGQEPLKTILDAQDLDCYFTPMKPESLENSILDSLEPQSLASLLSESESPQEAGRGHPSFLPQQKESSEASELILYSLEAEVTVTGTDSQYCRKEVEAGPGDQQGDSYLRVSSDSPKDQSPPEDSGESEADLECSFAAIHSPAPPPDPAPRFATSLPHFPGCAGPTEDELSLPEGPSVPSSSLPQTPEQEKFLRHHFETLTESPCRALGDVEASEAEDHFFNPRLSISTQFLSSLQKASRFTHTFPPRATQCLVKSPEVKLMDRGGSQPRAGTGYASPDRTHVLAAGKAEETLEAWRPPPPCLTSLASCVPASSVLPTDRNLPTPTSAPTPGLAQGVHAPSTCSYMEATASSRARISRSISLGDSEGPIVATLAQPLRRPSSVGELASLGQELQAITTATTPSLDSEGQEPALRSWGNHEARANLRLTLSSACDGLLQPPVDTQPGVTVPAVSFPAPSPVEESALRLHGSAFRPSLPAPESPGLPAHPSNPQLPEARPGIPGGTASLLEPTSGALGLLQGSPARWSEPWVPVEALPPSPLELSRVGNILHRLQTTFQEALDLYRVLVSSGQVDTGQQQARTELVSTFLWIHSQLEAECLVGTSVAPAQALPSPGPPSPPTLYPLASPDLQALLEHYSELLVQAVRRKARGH
UniProt Q8IV63: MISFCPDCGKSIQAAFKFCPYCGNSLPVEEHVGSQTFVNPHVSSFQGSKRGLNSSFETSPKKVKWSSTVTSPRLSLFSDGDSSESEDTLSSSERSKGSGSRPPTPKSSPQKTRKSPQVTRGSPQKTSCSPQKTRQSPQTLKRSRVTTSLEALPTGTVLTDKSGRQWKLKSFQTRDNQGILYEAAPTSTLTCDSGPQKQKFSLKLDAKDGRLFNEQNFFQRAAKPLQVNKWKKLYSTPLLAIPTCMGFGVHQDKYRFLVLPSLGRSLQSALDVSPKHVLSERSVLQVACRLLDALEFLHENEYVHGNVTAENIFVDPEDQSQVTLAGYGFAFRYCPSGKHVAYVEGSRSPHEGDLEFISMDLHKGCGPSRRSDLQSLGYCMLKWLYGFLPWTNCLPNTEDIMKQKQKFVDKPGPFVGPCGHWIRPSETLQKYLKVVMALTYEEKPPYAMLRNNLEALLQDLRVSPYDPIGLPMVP
UniProt Q15007: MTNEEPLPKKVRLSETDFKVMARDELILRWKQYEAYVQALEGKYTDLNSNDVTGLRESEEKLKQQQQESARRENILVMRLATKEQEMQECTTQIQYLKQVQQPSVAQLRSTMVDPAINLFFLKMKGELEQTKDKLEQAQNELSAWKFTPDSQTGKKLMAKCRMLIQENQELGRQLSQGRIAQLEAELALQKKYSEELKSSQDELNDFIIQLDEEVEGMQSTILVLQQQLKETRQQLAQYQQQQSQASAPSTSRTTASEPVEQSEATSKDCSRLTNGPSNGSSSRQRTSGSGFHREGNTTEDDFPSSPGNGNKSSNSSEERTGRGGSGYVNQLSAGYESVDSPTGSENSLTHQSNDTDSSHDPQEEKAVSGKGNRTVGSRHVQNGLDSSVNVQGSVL
UniProt Q9UN37: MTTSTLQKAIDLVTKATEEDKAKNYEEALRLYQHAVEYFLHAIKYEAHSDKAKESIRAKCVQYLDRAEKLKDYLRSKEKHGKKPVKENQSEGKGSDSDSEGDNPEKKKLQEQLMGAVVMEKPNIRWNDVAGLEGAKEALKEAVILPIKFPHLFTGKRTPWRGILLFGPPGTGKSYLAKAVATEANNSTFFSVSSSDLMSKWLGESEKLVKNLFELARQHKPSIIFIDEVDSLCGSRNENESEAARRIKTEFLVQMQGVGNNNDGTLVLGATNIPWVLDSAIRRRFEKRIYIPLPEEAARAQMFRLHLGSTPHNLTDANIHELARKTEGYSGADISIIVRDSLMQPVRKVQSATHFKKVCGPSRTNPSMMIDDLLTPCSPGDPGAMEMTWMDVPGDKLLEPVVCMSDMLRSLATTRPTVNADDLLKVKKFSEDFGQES

Tests used:
Experiment in all cases: log2 fold change, soluble protein after heating vs DMSO (PISA); higher = thermal stabilisation; K562 lysate, 10 uM; active = over 0.2 and 3.5 SD of the protein, either way, in both replicates (recomputed)
[1] = compound: Cc1cn(-c2cc(NC(=O)c3ccc(C)c(Nc4nccc(-c5cccnc5)n4)c3)cc(C(F)(F)F)c2)cn1 [nilotinib]
How it was run: (§1)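 A 30 min treatment with 10 μM compound was applied to crude K562 extract at 1 mg/mL protein in PBS pH 7.4 with 1 mM MgCl2. Heating for 3 min spanned 48°C-58°C, after which aliquots were pooled, adjusted to 0.5% NP-40 at 4°C and spun at 21,000xg for 90 min. TMTpro 16plex LC-MS/MS of the supernatant, with channel sums equalised, gave values recorded as log-two fold change in thermal stability against solvent controls, from duplicates.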

[2] = compound: Cc1nc(Nc2n[nH]c3c2CN(C(=O)N[C@H](CN(C)C)c2ccccc2)C3(C)C)c2sccc2n1
How it was run: as §1

[3] = compound: Cc1nc(Nc2ncc(C(=O)Nc3c(C)cccc3Cl)s2)cc(N2CCN(CCO)CC2)n1 [dasatinib]
How it was run: as §1

[4] = compound: Cc1ncc(-c2ccnc(Nc3ccc(S(C)(=O)=O)cc3)n2)n1C(C)C
How it was run: as §1

[5] = compound: Cn1cc(-c2ccc3c(c2)CCN3C(=O)Cc2cccc(C(F)(F)F)c2)c2c(N)ncnc21
How it was run: as §1

[6] = compound: Cn1cc(CNCC2CCN(c3ncc(C(=O)NO)cn3)CC2)c2ccccc21 [quisinostat]
How it was run: as §1

[7] = compound: Cn1cncc1[C@@](N)(c1ccc(Cl)cc1)c1ccc2c(c1)c(-c1cccc(Cl)c1)cc(=O)n2C [tipifarnib]
How it was run: as §1

[8] = compound: NC(=O)Nc1cc(-c2cccc(F)c2)sc1C(=O)N[C@H]1CCCNC1
How it was run: as §1

[9] = compound: NC(=O)c1cnc(N[C@@H]2CCCC[C@@H]2N)nc1Nc1cccc(-n2nccn2)c1
How it was run: as §1

[10] = compound: NC1(c2ccc(-c3nc4ccn5c(=O)[nH]nc5c4cc3-c3ccccc3)cc2)CCC1
How it was run: as §1

[11] = compound: NCC(=O)Nc1ccc(-n2nc(C(F)(F)F)cc2-c2ccc3c(ccc4ccccc43)c2)cc1
How it was run: as §1

[12] = compound: O=C(CCCCCCC(=O)Nc1ccccc1)NO [vorinostat]
How it was run: as §1

[13] = compound: O=C(O)c1ccc2c(c1)nc(Nc1cccc(Cl)c1)c1ccncc12 [silmitasertib]
How it was run: as §1

[14] = compound: O=C1NC(=O)C(c2cnc3ccccn23)=C1c1cn2c3c(cc(F)cc13)CN(C(=O)N1CCCCC1)CC2
How it was run: as §1

[15] = compound: c1cn2cc(-c3ccc4cn[nH]c4c3)nc(Nc3ccc(N4CCOCC4)cc3)c2n1 [entospletinib]
How it was run: as §1

Target	log2 fold change [1]	log2 fold change [2]	log2 fold change [3]	log2 fold change [4]	log2 fold change [5]	log2 fold change [6]	log2 fold change [7]	log2 fold change [8]	log2 fold change [9]	log2 fold change [10]	log2 fold change [11]	log2 fold change [12]	log2 fold change [13]	log2 fold change [14]	log2 fold change [15]
WIPI2 (UniProt Q9Y4P8)	inactive: 0.032	inactive: 0.043	inactive: 0.007	inactive: -0.018	inactive: -0.004	inactive: -0.054	inactive: 0.011	inactive: 0.053	inactive: -0.005	inactive: 0.021	inactive: -0.036	active: -0.303	inactive: 0.033	inactive: -0.005	inactive: -0.008
WDR36 (UniProt Q8NI36)	inactive: 0.003	inactive: -0.015	inactive: 0.012	inactive: 0.002	inactive: 0.025	inactive: -0.014	inactive: -0.002	inactive: 0.03	inactive: -0.004	inactive: -0.01	inactive: -0.051	active: -0.345	inactive: 0.044	inactive: 0.028	inactive: -0.011
WDR77 (UniProt Q9BQA1)	inactive: 0.056	inactive: 0.028	inactive: 0.093	inactive: 0	inactive: -0.013	inactive: 0.014	inactive: 0.048	inactive: 0.006	inactive: -0.008	inactive: 0.039	inactive: -0.052	inactive: -0.067	inactive: 0.041	inactive: -0.01	inactive: 0.006
VPS51 (UniProt Q9UID3)	inactive: -0.018	inactive: -0.008	inactive: -0.032	inactive: 0.005	inactive: 0.01	inactive: 0.038	inactive: -0.015	inactive: 0.036	inactive: 0.035	inactive: -0.017	inactive: -0.003	inactive: -0.24	inactive: 0.025	inactive: -0.018	inactive: -0.015
WASHC3 (UniProt Q9Y3C0)	inactive: 0.009	inactive: -0.051	inactive: -0.024	inactive: 0.043	inactive: -0.001	inactive: 0.008	inactive: -0.008	inactive: -0.031	inactive: -0.001	inactive: -0.029	inactive: 0.011	inactive: 0.046	inactive: -0.07	inactive: -0.025	inactive: -0.039
WRAP53 (UniProt Q9BUR4)	inactive: -0.048	inactive: 0.039	inactive: 0.023	inactive: -0.029	inactive: -0.037	inactive: 0.011	inactive: 0.081	inactive: 0.055	inactive: -0.019	inactive: -0.043	inactive: 0.001	inactive: 0.018	inactive: 0.029	inactive: 0.023	inactive: -0.005
VWA5A (UniProt O00534)	inactive: -0.01	inactive: 0.054	inactive: -0.012	inactive: -0.034	inactive: 0.087	inactive: 0.024	inactive: 0.013	inactive: -0.024	inactive: 0.057	inactive: 0	inactive: 0.023	inactive: -0.061	inactive: -0.044	inactive: -0.03	inactive: -0.014
VPS33B (UniProt Q9H267)	inactive: -0.016	inactive: 0.017	inactive: -0.015	inactive: 0.02	inactive: 0.024	inactive: 0.015	inactive: -0.029	inactive: 0.022	inactive: -0.001	inactive: -0.012	inactive: -0.004	inactive: -0.082	inactive: 0.035	inactive: 0.011	inactive: -0.018
WDR33 (UniProt Q9C0J8)	inactive: -0.052	inactive: 0.031	inactive: 0.008	inactive: 0.106	inactive: 0.007	inactive: -0.028	inactive: 0.026	inactive: 0.055	inactive: -0.029	inactive: -0.011	inactive: -0.002	inactive: -0.015	inactive: -0.019	inactive: 0.011	inactive: -0.08
WDFY1 (UniProt Q8IWB7)	inactive: 0.017	inactive: 0.016	inactive: 0.042	inactive: -0.012	inactive: -0.052	inactive: 0	inactive: -0.026	inactive: -0.021	inactive: 0.046	inactive: -0.026	inactive: -0.008	inactive: 0.007	inactive: -0.009	inactive: -0.008	inactive: 0.004
VPS45 (UniProt Q9NRW7)	inactive: -0.015	inactive: -0.008	inactive: -0.01	inactive: -0.021	inactive: -0.008	inactive: -0.022	inactive: 0.028	inactive: 0.041	inactive: 0.008	inactive: -0.014	inactive: -0.047	inactive: -0.059	inactive: -0.002	inactive: -0.022	inactive: -0.001
VRK1 (UniProt Q99986)	inactive: -0.002	inactive: 0	inactive: -0.001	inactive: 0.005	inactive: 0.032	inactive: -0.059	inactive: -0.018	inactive: 0.015	inactive: 0.003	inactive: -0.046	inactive: -0.013	inactive: -0.08	inactive: 0.091	inactive: 0.002	inactive: 0.056
WDR46 (UniProt O15213)	inactive: 0.017	inactive: -0.212	inactive: 0.003	inactive: -0.101	inactive: 0.036	inactive: -0.109	inactive: 0.033	inactive: 0.028	inactive: 0.013	inactive: -0.093	inactive: -0.002	inactive: 0.032	inactive: 0.053	inactive: -0.023	inactive: -0.113
WDR37 isoform 2 (UniProt Q9Y2I8)	inactive: -0.033	inactive: 0.038	inactive: 0.011	inactive: -0.022	inactive: 0.026	inactive: -0.041	inactive: -0.093	inactive: 0.033	inactive: -0.076	inactive: -0.003	inactive: -0.048	inactive: -0.211	inactive: -0.008	inactive: -0.027	inactive: -0.054
WASHC2C (UniProt Q9Y4E1)	inactive: -0.039	inactive: -0.044	inactive: -0.009	inactive: 0.142	inactive: -0.045	inactive: -0.068	inactive: 0.049	inactive: 0.063	inactive: -0.033	inactive: 0.01	inactive: 0.011	inactive: 0.139	inactive: 0.009	inactive: -0.014	inactive: -0.053
VPS41 (UniProt P49754)	inactive: 0.034	inactive: 0.014	inactive: -0.038	inactive: 0.001	inactive: 0.057	inactive: -0.048	inactive: -0.029	inactive: 0.029	inactive: 0.001	inactive: -0.009	inactive: -0.025	active: -0.471	inactive: 0.004	inactive: -0.018	inactive: 0.007
WDR62 isoform 4 (UniProt O43379)	inactive: -0.001	inactive: 0.003	inactive: -0.026	inactive: 0	inactive: 0.022	inactive: -0.103	inactive: -0.051	inactive: 0.031	inactive: -0.02	inactive: -0.031	inactive: 0.045	active: -0.423	inactive: 0.01	inactive: -0.014	inactive: -0.016
VRK3 (UniProt Q8IV63)	inactive: 0.035	inactive: 0.028	inactive: 0.044	inactive: -0.001	inactive: 0.011	inactive: -0.011	inactive: 0.053	inactive: 0.031	inactive: -0.001	inactive: 0.032	inactive: 0.047	inactive: -0.075	inactive: 0.002	inactive: -0.027	inactive: -0.077
WTAP (UniProt Q15007)	inactive: 0.023	inactive: 0.003	inactive: -0.018	inactive: -0.035	inactive: -0.016	inactive: -0.005	inactive: 0.011	inactive: 0.03	inactive: -0.04	inactive: -0.017	inactive: 0.032	inactive: -0.043	inactive: -0.002	inactive: -0.003	inactive: -0.008
VPS33A (UniProt Q96AX1)	inactive: -0.007	inactive: -0.004	inactive: -0.007	inactive: -0.027	inactive: 0.045	inactive: -0.018	inactive: -0.006	inactive: 0.041	inactive: 0.021	inactive: -0.034	inactive: 0.011	active: -0.222	inactive: 0.025	inactive: 0.007	inactive: -0.018
VPS4A (UniProt Q9UN37)	inactive: -0.011	inactive: 0.008	inactive: -0.075	inactive: 0.002	inactive: 0.056	inactive: -0.027	inactive: 0.023	inactive: 0.019	inactive: 0.004	inactive: -0.011	inactive: -0.026	active: -0.356	inactive: 0.059	inactive: -0.013	inactive: 0.038

Some of the entries above, set out differently:
Target,log2 fold change [1],log2 fold change [2],log2 fold change [3],log2 fold change [4],log2 fold change [5],log2 fold change [6],log2 fold change [7],log2 fold change [8],log2 fold change [9],log2 fold change [10],log2 fold change [11],log2 fold change [12],log2 fold change [13],log2 fold change [14],log2 fold change [15]
WASHC3 (UniProt Q9Y3C0),inactive: 0.009,inactive: -0.051,inactive: -0.024,inactive: 0.043,inactive: -0.001,inactive: 0.008,inactive: -0.008,inactive: -0.031,inactive: -0.001,inactive: -0.029,inactive: 0.011,inactive: 0.046,inactive: -0.07,inactive: -0.025,inactive: -0.039
VWA5A (UniProt O00534),inactive: -0.01,inactive: 0.054,inactive: -0.012,inactive: -0.034,inactive: 0.087,inactive: 0.024,inactive: 0.013,inactive: -0.024,inactive: 0.057,inactive: 0,inactive: 0.023,inactive: -0.061,inactive: -0.044,inactive: -0.03,inactive: -0.014
